How the values were obtained:
[1] = Apical-to-basolateral permeability; conditions: human, Caco-2
[2] = Apical-to-basolateral permeability; conditions: human

- Papp A→B at 2 h [1]: < 0.3 ×10⁻⁶ cm/s
- Papp A→B at 2 h [2]: 8.04 ± 0.91 ×10⁻⁶ cm/s
SMILES: NS(=O)(=O)c1cc(C(=O)O)c(NCc2ccco2)cc1Cl [furosemide]
